Reference: paper PMC2362351
These are yes or no findings as the source states them, for the method shown. In cells and extracts the contact can be indirect. Some entries that bind do so weakly or less than the wild type.

Assays:
[1] = biological target: epidermal growth factor receptor (human (endogenous in HT29, Kato 3, HSC39, MKN7, MKN45, AGS)) (UniProt P00533); assay: co-IP; MKN7 cell extract, endogenous proteins; same procedure (Triton X-100 lysis, protein G sepharose, high stringency, high salt and low salt washes, Western blot)
[2] = biological target: epidermal growth factor receptor (human (endogenous in HT29, Kato 3, HSC39, MKN7, MKN45, AGS)) (UniProt P00533); assay: co-IP; MKN45 cell extract, endogenous proteins; same procedure (Triton X-100 lysis, protein G sepharose, high stringency, high salt and low salt washes, Western blot)
[3] = biological target: epidermal growth factor receptor (human (endogenous in HT29, Kato 3, HSC39, MKN7, MKN45, AGS)) (UniProt P00533); assay: co-IP; AGS cell extract, endogenous proteins; same procedure (Triton X-100 lysis, protein G sepharose, high stringency, high salt and low salt washes, Western blot)
[4] = biological target: epidermal growth factor receptor (human (endogenous in HT29, Kato 3, HSC39, MKN7, MKN45, AGS)) (UniProt P00533); assay: co-IP; Kato 3 cell extract, endogenous proteins; same procedure (Triton X-100 lysis, protein G sepharose, high stringency, high salt and low salt washes, Western blot)
[5] = biological target: epidermal growth factor receptor (human (endogenous in HT29, Kato 3, HSC39, MKN7, MKN45, AGS)) (UniProt P00533); assay: co-IP; HT29 cell extract (0.5% Triton X-100 buffer: 50 mM NaCl, 10 mM Pipes, MgCl2, 300 mM sucrose), endogenous proteins; precleared with mouse IgG; antibody on protein G sepharose 2 h at 4 C; washed with high stringency, high salt and low salt buffers; SDS-PAGE and Western blot

Measured: binding

beta-catenin (from UniProt P35222 1-781)
binds: all assays above

B1: gamma-catenin (protein, UniProt P14923 1-745)
chain: MEVMNLMEQPIKVTEWQQTYTYDSGIHSGANTCVPSVSSKGIMEEDEACGRQYTLKKTTTYTQGVPPSQGDLEYQMSTTARAKRVREAMCPGVSGEDSSLLLATQVEGQATNLQRLAEPSQLLKSAIVHLINYQDDAELATRALPELTKLLNDEDPVVVTKAAMIVNQLSKKEASRRALMGSPQLVAAVVRTMQNTSDLDTARCTTSILHNLSHHREGLLAIFKSGGIPALVRMLSSPVESVLFYAITTLHNLLLYQEGAKMAVRLADGLQKMVPLLNKNNPKFLAITTDCLQLLAYGNQESKLIILANGGPQALVQIMRNYSYEKLLWTTSRVLKVLSVCPSNKPAIVEAGGMQALGKHLTSNSPRLVQNCLWTLRNLSDVATKQEGLESVLKILVNQLSVDDVNVLTCATGTLSNLTCNNSKNKTLVTQNSGVEALIHAILRAGDKDDITEPAVCALRHLTSRHPEAEMAQNSVRLNYGIPAIVKLLNQPNQWPLVKATIGLIRNLALCPANHAPLQEAAVIPRLVQLLVKAHQDAQRHVAAGTQQPYTDGVRMEEIVEGCTGALHILARDPMNRMEIFRLNTIPLFVQLLYSSVENIQRVAAGVLCELAQDKEAADAIDAEGASAPLMELLHSRNEGTATYAAAVLFRISEDKNPDYRKRVSVELTNSLFKHDPAAWEAAQSMIPINEPYGDDMDATYRPMYSSDVPLDPLEMHMDMDGDYPIDTYSDGLRPPYPTADHMLA
binds: [5]
